Results are given in words; binding and its absence hold for the method and conditions named. Binding seen in cells or lysates may run through a third protein.
Legend:
[1] = biological target: T1, dynamin2 (human (endogenous in primary CD4+ T cells)) (UniProt P50570); test: co-IP; anti-dynamin2 antibody (or isotype control) on Protein G Dynabeads; lysate of primary human resting CD4+ T cells in Triton lysis buffer (10mM HEPES, 2mM MgCl2, 10mM KCl, 0.5mM EDTA, 150mM NaCl, 0.5% Triton), 4h at 4°C; cells stimulated with 50ng/ml PMA if indicated; western blot
T1 sequence: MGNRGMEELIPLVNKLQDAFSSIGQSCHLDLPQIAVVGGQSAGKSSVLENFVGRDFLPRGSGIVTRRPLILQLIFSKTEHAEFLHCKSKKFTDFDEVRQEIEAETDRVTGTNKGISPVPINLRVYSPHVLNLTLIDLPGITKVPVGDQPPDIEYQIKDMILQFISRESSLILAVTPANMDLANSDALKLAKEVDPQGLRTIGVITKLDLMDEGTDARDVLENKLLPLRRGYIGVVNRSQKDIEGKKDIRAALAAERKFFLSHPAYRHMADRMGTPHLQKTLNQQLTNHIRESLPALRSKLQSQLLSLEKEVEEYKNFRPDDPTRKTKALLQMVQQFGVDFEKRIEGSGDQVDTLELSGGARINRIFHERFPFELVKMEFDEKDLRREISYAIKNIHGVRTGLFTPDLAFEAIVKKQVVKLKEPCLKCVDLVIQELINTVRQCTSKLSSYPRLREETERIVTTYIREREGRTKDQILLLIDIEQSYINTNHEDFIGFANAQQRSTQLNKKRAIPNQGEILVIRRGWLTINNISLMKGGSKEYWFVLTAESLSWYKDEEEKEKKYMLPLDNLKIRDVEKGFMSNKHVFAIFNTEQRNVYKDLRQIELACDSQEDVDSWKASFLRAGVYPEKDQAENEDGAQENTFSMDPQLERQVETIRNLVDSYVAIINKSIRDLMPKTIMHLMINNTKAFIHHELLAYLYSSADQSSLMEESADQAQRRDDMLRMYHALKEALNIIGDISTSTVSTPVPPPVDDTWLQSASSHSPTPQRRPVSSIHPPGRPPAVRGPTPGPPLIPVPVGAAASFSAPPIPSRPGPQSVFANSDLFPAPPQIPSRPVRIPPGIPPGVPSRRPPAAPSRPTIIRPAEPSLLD

[2] = biological target: T2, RapGEF1 (human (endogenous in primary CD4+ T cells)) (UniProt Q13905); test: co-IP; anti-RapGEF1 antibody (or isotype control) on Protein G Dynabeads; lysate of primary human resting CD4+ T cells in Triton lysis buffer (10mM HEPES, 2mM MgCl2, 10mM KCl, 0.5mM EDTA, 150mM NaCl, 0.5% Triton), 4h at 4°C; cells stimulated with 50ng/ml PMA if indicated; western blot
T2 sequence: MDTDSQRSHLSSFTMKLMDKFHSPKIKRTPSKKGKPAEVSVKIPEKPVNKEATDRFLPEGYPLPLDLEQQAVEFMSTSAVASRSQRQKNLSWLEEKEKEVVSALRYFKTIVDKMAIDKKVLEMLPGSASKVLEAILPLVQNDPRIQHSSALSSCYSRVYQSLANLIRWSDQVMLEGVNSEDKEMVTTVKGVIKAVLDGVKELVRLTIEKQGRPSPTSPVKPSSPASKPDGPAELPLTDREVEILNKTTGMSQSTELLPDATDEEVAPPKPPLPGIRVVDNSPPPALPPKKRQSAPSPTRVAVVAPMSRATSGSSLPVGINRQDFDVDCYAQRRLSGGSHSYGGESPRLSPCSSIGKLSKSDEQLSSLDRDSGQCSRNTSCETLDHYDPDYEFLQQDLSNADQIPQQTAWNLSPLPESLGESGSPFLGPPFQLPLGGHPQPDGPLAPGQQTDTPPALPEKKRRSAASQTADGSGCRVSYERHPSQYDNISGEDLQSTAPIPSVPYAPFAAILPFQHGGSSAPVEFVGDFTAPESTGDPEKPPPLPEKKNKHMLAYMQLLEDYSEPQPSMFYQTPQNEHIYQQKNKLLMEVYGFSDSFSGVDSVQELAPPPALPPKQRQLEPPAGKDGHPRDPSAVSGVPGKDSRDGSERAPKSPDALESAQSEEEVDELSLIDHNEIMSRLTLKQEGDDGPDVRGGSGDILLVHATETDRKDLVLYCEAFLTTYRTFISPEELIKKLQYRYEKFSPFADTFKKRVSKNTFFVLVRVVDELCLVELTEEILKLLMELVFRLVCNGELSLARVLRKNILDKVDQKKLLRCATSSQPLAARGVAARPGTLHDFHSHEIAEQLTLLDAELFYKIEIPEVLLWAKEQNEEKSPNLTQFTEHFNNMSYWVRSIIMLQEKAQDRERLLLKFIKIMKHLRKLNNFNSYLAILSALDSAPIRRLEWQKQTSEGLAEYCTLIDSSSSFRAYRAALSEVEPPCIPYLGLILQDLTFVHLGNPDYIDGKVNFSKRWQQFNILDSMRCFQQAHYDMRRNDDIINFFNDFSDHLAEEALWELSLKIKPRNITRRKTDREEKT

Substance: Rap1 (Ras-related protein 1)
- binding [1]: no binding
- binding [2]: no binding

— article PMC5342215
